Results are given in words; binding and its absence hold for the method and conditions named. Ends that are not written are not given here.
Columns and labels:
Test in all cases: PepSpot array
[1] = molecular target: T1, GPVI peptide 35 (human)
T1 sequence (peptide, N-terminus acetylated): DQAVLFIPAMKRS

[2] = molecular target: T2, GPVI peptide 124 (human)
T2 sequence (peptide, N-terminus acetylated): ITTSPKESDSPAG

[3] = molecular target: T3, GPVI peptide 5 (human)
T3 sequence (peptide, N-terminus acetylated): FCLGLCLGRVPAQ

[4] = molecular target: T4, GPVI peptide 62 (human)
T4 sequence (peptide, N-terminus acetylated): AVSSGGDVTLQCQ

[5] = molecular target: T5, GPVI peptide 16 (human)
T5 sequence (peptide, N-terminus acetylated): QALPSSLVPLEKP

[6] = molecular target: T6, GPVI peptide 57 (human)
T6 sequence (peptide, N-terminus acetylated): KPSLSAQPGPAVS

[7] = molecular target: T7, GPVI peptide 23 (human)
T7 sequence (peptide, N-terminus acetylated): TLRCQGPPGVDLY

[8] = molecular target: T8, GPVI peptide 36 (human)
T8 sequence (peptide, N-terminus acetylated): AVLFIPAMKRSLA

[9] = molecular target: T9, GPVI peptide 127 (human)
T9 sequence (peptide, N-terminus acetylated): ESDSPAGPARQYY

[10] = molecular target: T10, GPVI peptide 109 (human)
T10 sequence (peptide, N-terminus acetylated): PSSVAEFSEATAE

[11] = molecular target: T11, GPVI peptide 114 (human)
T11 sequence (peptide, N-terminus acetylated): TAELTVSFTNKVF

[12] = molecular target: T12, GPVI peptide 121 (human)
T12 sequence (peptide, N-terminus acetylated): TETSRSITTSPKE

[13] = molecular target: T13, GPVI peptide 4 (human)
T13 sequence (peptide, N-terminus acetylated): ALFCLGLCLGRVP

[14] = molecular target: T14, GPVI peptide 119 (human)
T14 sequence (peptide, N-terminus acetylated): KVFTTETSRSITT

[15] = molecular target: T15, GPVI peptide 122 (human)
T15 sequence (peptide, N-terminus acetylated): TSRSITTSPKESD

[16] = molecular target: T16, GPVI peptide 90 (human)
T16 sequence (peptide, N-terminus acetylated): RCYSFSSRDPYLW

[17] = molecular target: T17, GPVI peptide 67 (human)
T17 sequence (peptide, N-terminus acetylated): QCQTRYGFDQFAL

[18] = molecular target: T18, GPVI peptide 120 (human)
T18 sequence (peptide, N-terminus acetylated): FTTETSRSITTSP

[19] = molecular target: T19, GPVI peptide 81 (human)
T19 sequence (peptide, N-terminus acetylated): YRASFPIITVTAA

[20] = molecular target: T20, GPVI peptide 45 (human)
T20 sequence (peptide, N-terminus acetylated): SYQNGSLWSLPSD

[21] = molecular target: T21, GPVI peptide 2 (human)
T21 sequence (peptide, N-terminus acetylated): PSPTALFCLGLCL

[22] = molecular target: T22, GPVI peptide 29 (human)
T22 sequence (peptide, N-terminus acetylated): YRLEKLSSSRYQD

[23] = molecular target: T23, GPVI peptide 74 (human)
T23 sequence (peptide, N-terminus acetylated): KEGDPAPYKNPER

[24] = molecular target: T24, GPVI peptide 1 (human)
T24 sequence (peptide, N-terminus acetylated): MSPSPTALFCLGL

[25] = molecular target: T25, GPVI peptide 77 (human)
T25 sequence (peptide, N-terminus acetylated): PYKNPERWYRASF

[26] = molecular target: T26, GPVI peptide 95 (human)
T26 sequence (peptide, N-terminus acetylated): YLWSAPSDPLELV

[27] = molecular target: T27, GPVI peptide 61 (human)
T27 sequence (peptide, N-terminus acetylated): GPAVSSGGDVTLQ

[28] = molecular target: T28, GPVI peptide 126 (human)
T28 sequence (peptide, N-terminus acetylated): PKESDSPAGPARQ

[29] = molecular target: T29, GPVI peptide 111 (human)
T29 sequence (peptide, N-terminus acetylated): AEFSEATAELTVS

[30] = molecular target: T30, GPVI peptide 15 (human)
T30 sequence (peptide, N-terminus acetylated): SLQALPSSLVPLE

[31] = molecular target: T31, GPVI peptide 49 (human)
T31 sequence (peptide, N-terminus acetylated): SLPSDQLELVATG

[32] = molecular target: T32, GPVI peptide 24 (human)
T32 sequence (peptide, N-terminus acetylated): RCQGPPGVDLYRL

[33] = molecular target: T33, GPVI peptide 94 (human)
T33 sequence (peptide, N-terminus acetylated): DPYLWSAPSDPLE

[34] = molecular target: T34, GPVI peptide 18 (human)
T34 sequence (peptide, N-terminus acetylated): SSLVPLEKPVTLR

[35] = molecular target: T35, GPVI peptide 129 (human)
T35 sequence (peptide, N-terminus acetylated): PAGPARQYYTKGN

[36] = molecular target: T36, GPVI peptide 85 (human)
T36 sequence (peptide, N-terminus acetylated): TVTAAHSGTYRCY

[37] = molecular target: T37, GPVI peptide 105 (human)
T37 sequence (peptide, N-terminus acetylated): PSRLPTEPPSSVA

[38] = molecular target: T38, GPVI peptide 52 (human)
T38 sequence (peptide, N-terminus acetylated): LELVATGVFAKPS

[39] = molecular target: T39, GPVI peptide 66 (human)
T39 sequence (peptide, N-terminus acetylated): TLQCQTRYGFDQF

[40] = molecular target: T40, GPVI peptide 73 (human)
T40 sequence (peptide, N-terminus acetylated): LYKEGDPAPYKNP

[41] = molecular target: T41, GPVI peptide 58 (human)
T41 sequence (peptide, N-terminus acetylated): SLSAQPGPAVSSG

[42] = molecular target: T42, GPVI peptide 21 (human)
T42 sequence (peptide, N-terminus acetylated): EKPVTLRCQGPPG

[43] = molecular target: T43, GPVI peptide 39 (human)
T43 sequence (peptide, N-terminus acetylated): AMKRSLAGRYRCS

[44] = molecular target: T44, GPVI peptide 64 (human)
T44 sequence (peptide, N-terminus acetylated): GGDVTLQCQTRYG

[45] = molecular target: T45, GPVI peptide 63 (human)
T45 sequence (peptide, N-terminus acetylated): SSGGDVTLQCQTR

[46] = molecular target: T46, GPVI peptide 41 (human)
T46 sequence (peptide, N-terminus acetylated): SLAGRYRCSYQNG

[47] = molecular target: T47, GPVI peptide 123 (human)
T47 sequence (peptide, N-terminus acetylated): RSITTSPKESDSP

[48] = molecular target: T48, GPVI peptide 86 (human)
T48 sequence (peptide, N-terminus acetylated): TAAHSGTYRCYSF

[49] = molecular target: T49, GPVI peptide 88 (human)
T49 sequence (peptide, N-terminus acetylated): SGTYRCYSFSSRD

[50] = molecular target: T50, GPVI peptide 78 (human)
T50 sequence (peptide, N-terminus acetylated): KNPERWYRASFPI

[51] = molecular target: T51, GPVI peptide 47 (human)
T51 sequence (peptide, N-terminus acetylated): GSLWSLPSDQLEL

[52] = molecular target: T52, GPVI peptide 65 (human)
T52 sequence (peptide, N-terminus acetylated): DVTLQCQTRYGFD

[53] = molecular target: T53, GPVI peptide 79 (human)
T53 sequence (peptide, N-terminus acetylated): PERWYRASFPIIT

[54] = molecular target: T54, GPVI peptide 44 (human)
T54 sequence (peptide, N-terminus acetylated): RCSYQNGSLWSLP

[55] = molecular target: T55, GPVI peptide 93 (human)
T55 sequence (peptide, N-terminus acetylated): SRDPYLWSAPSDP

[56] = molecular target: T56, GPVI peptide 115 (human)
T56 sequence (peptide, N-terminus acetylated): ELTVSFTNKVFTT

[57] = molecular target: T57, GPVI peptide 83 (human)
T57 sequence (peptide, N-terminus acetylated): FPIITVTAAHSGT

binding [1]: no binding (tested: 500 LU) | binding [2]: no binding (tested: 500 LU) | binding [3]: no binding (tested: 500 LU) | binding [4]: no binding (tested: 500 LU) | binding [5]: no binding (tested: 500 LU) | binding [6]: no binding (tested: 500 LU) | binding [7]: no binding (tested: 500 LU) | binding [8]: no binding (tested: 500 LU) | binding [9]: no binding (tested: 500 LU) | binding [10]: no binding (tested: 500 LU) | binding [11]: no binding (tested: 500 LU) | binding [12]: no binding (tested: 500 LU) | binding [13]: no binding (tested: 500 LU) | binding [14]: no binding (tested: 500 LU) | binding [15]: no binding (tested: 500 LU) | binding [16]: no binding (tested: 500 LU) | binding [17]: no binding (tested: 500 LU) | binding [18]: no binding (tested: 500 LU) | binding [19]: no binding (tested: 500 LU) | binding [20]: no binding (tested: 500 LU) | binding [21]: no binding (tested: 500 LU) | binding [22]: no binding (tested: 500 LU) | binding [23]: no binding (tested: 500 LU) | binding [24]: no binding (tested: 500 LU) | binding [25]: no binding (tested: 500 LU) | binding [26]: no binding (tested: 500 LU) | binding [27]: no binding (tested: 500 LU) | binding [28]: no binding (tested: 500 LU) | binding [29]: no binding (tested: 500 LU) | binding [30]: no binding (tested: 500 LU) | binding [31]: no binding (tested: 500 LU) | binding [32]: no binding (tested: 500 LU) | binding [33]: no binding (tested: 500 LU) | binding [34]: no binding (tested: 500 LU) | binding [35]: no binding (tested: 500 LU) | binding [36]: no binding (tested: 500 LU) | binding [37]: no binding (tested: 500 LU) | binding [38]: no binding (tested: 500 LU) | binding [39]: no binding (tested: 500 LU) | binding [40]: no binding (tested: 500 LU) | binding [41]: no binding (tested: 500 LU) | binding [42]: no binding (tested: 500 LU) | binding [43]: no binding (tested: 500 LU) | binding [44]: no binding (tested: 500 LU) | binding [45]: no binding (tested: 500 LU) | binding [46]: no binding (tested: 500 LU) | binding [47]: no binding (tested: 500 LU) | binding [48]: no binding (tested: 500 LU) | binding [49]: no binding (tested: 500 LU) | binding [50]: no binding (tested: 500 LU) | binding [51]: no binding (tested: 500 LU) | binding [52]: no binding (tested: 500 LU) | binding [53]: no binding (tested: 500 LU) | binding [54]: no binding (tested: 500 LU) | binding [55]: no binding (tested: 500 LU) | binding [56]: no binding (tested: 500 LU) | binding [57]: no binding (tested: 500 LU)
B1: monoclonal antibody hGP 5C4 (antibody, V domains shown)
VH: EVKLQESGGGLVQPGRSLKLSCTASGFTFSDYFMSWVRQAPTRGLEWVASISSGGASAYWRDSVKGRFTISRDNAKSALYLQMDSLRSEDTATYFCARGELDFDYWGQGVMVAVSS
VL: ADPNSTLLSASVGDRVTLNCTASQNVYKNLAWYQQKLGEAPRLLLYSANSQTGIPSRFSGSGSGPDFTLTISSLQPEDVASYFCQQYYSGNTFGAGTKLELKR
notes: Monoclonal IgG from Lou/C rats immunized with Fc-GPVI-nt; also called ab 5C4; anti-GPVI mAb 5C4
